The exact form of at least one protein or probe is not confirmed. Where cells or extracts were used, other partners may take part. At least one verdict was read from the data and is not stated in words by the source.
Target: Stat1 (IFN-gamma-activated, in cell extract) (UniProt P42224)
Test: EMSA
Details: 40 mM HEPES pH 7.9, 100 mM NaCl, 2 mM MgCl2, 2 mM DTT, 8% Ficoll, 50 ug/ml poly(dI-dC), 20 ul, room temperature 20 min, 4% gel in 0.25x TBE at 4 C, protein in an extract, label: 32P end label

The chains behind the UniProt entries cited, without tags or fusion partners. Residues count along the entry.
UniProt P42224, 2-750: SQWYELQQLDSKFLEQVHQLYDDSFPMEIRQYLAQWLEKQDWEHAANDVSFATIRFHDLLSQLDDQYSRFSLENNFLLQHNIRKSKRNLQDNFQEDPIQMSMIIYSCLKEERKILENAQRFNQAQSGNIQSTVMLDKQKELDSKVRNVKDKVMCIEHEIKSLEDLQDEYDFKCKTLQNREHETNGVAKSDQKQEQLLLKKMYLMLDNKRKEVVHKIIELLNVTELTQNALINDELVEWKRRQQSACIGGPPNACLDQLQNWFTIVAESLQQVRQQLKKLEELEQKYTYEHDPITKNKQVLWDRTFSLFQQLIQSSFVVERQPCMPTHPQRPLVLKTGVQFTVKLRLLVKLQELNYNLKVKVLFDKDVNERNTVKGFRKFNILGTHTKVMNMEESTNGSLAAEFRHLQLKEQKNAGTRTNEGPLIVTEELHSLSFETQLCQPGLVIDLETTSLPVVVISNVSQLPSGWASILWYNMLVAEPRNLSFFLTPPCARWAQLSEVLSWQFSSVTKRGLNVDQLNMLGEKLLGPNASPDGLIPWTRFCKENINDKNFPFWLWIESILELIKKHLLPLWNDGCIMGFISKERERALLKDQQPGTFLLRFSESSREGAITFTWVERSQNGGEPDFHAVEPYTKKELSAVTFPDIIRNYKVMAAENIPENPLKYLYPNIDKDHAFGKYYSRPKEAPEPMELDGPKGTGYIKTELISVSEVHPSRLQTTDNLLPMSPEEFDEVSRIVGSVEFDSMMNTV

Measured: binding result

GTGCATTTCCCGTAAATCTTGTCTACA (double strand) [M67-SIE]
binds: A431 extract, IFN-gamma treated (positive control) | PE01 extract, IFN-gamma treated | SKOV-3 extract, IFN-gamma treated, stronger than PE01
